Data as given in PubChem BioAssay AID1224830 (NIAID, 2016).

- Purpose: 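Genes whose knock-down alters the TNF-alpha reporter response to LPS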 (primary screen)
- Cell system: human THP-1 monocytic leukaemia cells, TNF dual-luciferase reporter clone, PMA-differentiated to macrophage-like cells
- Reagent: siRNA pool against human genes, 50 nM
- Timing: LPS for 4 h, given about 3 days after siRNA transfection
- Conditions: bacterial LPS (TLR4 ligand), 10 ng/ml
- Detection: 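TNF firefly reporter luminescence divided by renilla, normalised to the plate median, then turned into a robust z-score for each replicate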
- Reading the numbers: TNF reporter robust z-score: higher = stronger TNF reporter response to LPS
- Active means: 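Each well counts as active if its z-score is over 2.8 or under -1.5; controls are left without a call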
Shown is one part, drawn at random, of about 18,000 reagents tested. Over the whole deposit, about 2,900 (16%) got an active call. 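Calls are made per well; low scores hint the gene aids the LPS response, high scores that it dampens it.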 Repeated entries: four replicate wells of each siRNA pool.

Gene	TNF reporter robust z-score	Call
KRTAP4-7 (keratin associated protein 4-7)	13.4	active
KRTAP4-7 (keratin associated protein 4-7)	1.58	inactive
KRTAP4-7 (keratin associated protein 4-7)	0.18	inactive
KRTAP4-7 (keratin associated protein 4-7)	1.48	inactive
MEOX1 (mesenchyme homeobox 1)	0.77	inactive
MEOX1 (mesenchyme homeobox 1)	2.45	inactive
MEOX1 (mesenchyme homeobox 1)	0.33	inactive
MEOX1 (mesenchyme homeobox 1)	1.15	inactive
SFXN3 (sideroflexin 3)	-0.63	inactive
SFXN3 (sideroflexin 3)	0.11	inactive
SFXN3 (sideroflexin 3)	-0.47	inactive
SFXN3 (sideroflexin 3)	0.16	inactive
HAUS6 (HAUS augmin like complex subunit 6)	-0.07	inactive
HAUS6 (HAUS augmin like complex subunit 6)	0.61	inactive
HAUS6 (HAUS augmin like complex subunit 6)	-0.36	inactive
HAUS6 (HAUS augmin like complex subunit 6)	-0.1	inactive
ACVR1B (activin A receptor type 1B)	-0.24	inactive
ACVR1B (activin A receptor type 1B)	0.13	inactive
ACVR1B (activin A receptor type 1B)	-0.81	inactive
ACVR1B (activin A receptor type 1B)	0.17	inactive
UNC45B (unc-45 myosin chaperone B)	0.44	inactive
UNC45B (unc-45 myosin chaperone B)	0.14	inactive
UNC45B (unc-45 myosin chaperone B)	-1.12	inactive
UNC45B (unc-45 myosin chaperone B)	0.15	inactive
MTHFD1	0.14	inactive
MTHFD1	0.97	inactive
MTHFD1	1.61	inactive
MTHFD1	2.85	active
STUM (stum, mechanosensory transduction mediator homolog)	-0.71	inactive
STUM (stum, mechanosensory transduction mediator homolog)	-0.88	inactive
STUM (stum, mechanosensory transduction mediator homolog)	-0.82	inactive
STUM (stum, mechanosensory transduction mediator homolog)	-0.57	inactive
EVC2 (EvC ciliary complex subunit 2)	-0.9	inactive
EVC2 (EvC ciliary complex subunit 2)	-0.36	inactive
EVC2 (EvC ciliary complex subunit 2)	-1.24	inactive
EVC2 (EvC ciliary complex subunit 2)	-0.44	inactive
GLMN (glomulin)	-0.04	inactive
GLMN (glomulin)	0.94	inactive
GLMN (glomulin)	0.75	inactive
GLMN (glomulin)	0.58	inactive
TAC3 (tachykinin precursor 3)	-1.13	inactive
TAC3 (tachykinin precursor 3)	-0.99	inactive
TAC3 (tachykinin precursor 3)	1.32	inactive
TAC3 (tachykinin precursor 3)	-1.09	inactive
OR56A3 (olfactory receptor family 56 subfamily A member 3)	0.44	inactive
OR56A3 (olfactory receptor family 56 subfamily A member 3)	0.38	inactive
OR56A3 (olfactory receptor family 56 subfamily A member 3)	1.4	inactive
OR56A3 (olfactory receptor family 56 subfamily A member 3)	0.78	inactive
CHST6 (carbohydrate sulfotransferase 6)	1.52	inactive
CHST6 (carbohydrate sulfotransferase 6)	-0.03	inactive
CHST6 (carbohydrate sulfotransferase 6)	1.26	inactive
CHST6 (carbohydrate sulfotransferase 6)	2.57	inactive

Targets above whose target name begins with S or s (8):
Gene	TNF reporter robust z-score	Call
SFXN3 (sideroflexin 3)	-0.63	inactive
SFXN3 (sideroflexin 3)	0.11	inactive
SFXN3 (sideroflexin 3)	-0.47	inactive
SFXN3 (sideroflexin 3)	0.16	inactive
STUM (stum, mechanosensory transduction mediator homolog)	-0.71	inactive
STUM (stum, mechanosensory transduction mediator homolog)	-0.88	inactive
STUM (stum, mechanosensory transduction mediator homolog)	-0.82	inactive
STUM (stum, mechanosensory transduction mediator homolog)	-0.57	inactive

Further results:
Gene	TNF reporter robust z-score	Call
HAUS4 (HAUS augmin like complex subunit 4)	0.25	inactive
HAUS4 (HAUS augmin like complex subunit 4)	1.77	inactive
HAUS4 (HAUS augmin like complex subunit 4)	0.41	inactive
HAUS4 (HAUS augmin like complex subunit 4)	0.56	inactive
KRTAP15-1 (keratin associated protein 15-1)	0.33	inactive
KRTAP15-1 (keratin associated protein 15-1)	0.51	inactive
KRTAP15-1 (keratin associated protein 15-1)	0.38	inactive
KRTAP15-1 (keratin associated protein 15-1)	0.56	inactive
SPRED1 (sprouty related EVH1 domain containing 1)	0.05	inactive
SPRED1 (sprouty related EVH1 domain containing 1)	1.49	inactive
SPRED1 (sprouty related EVH1 domain containing 1)	-0.37	inactive
SPRED1 (sprouty related EVH1 domain containing 1)	-0.09	inactive
PEBP4 (phosphatidylethanolamine binding protein 4)	0.34	inactive
PEBP4 (phosphatidylethanolamine binding protein 4)	0.86	inactive
PEBP4 (phosphatidylethanolamine binding protein 4)	0.4	inactive
PEBP4 (phosphatidylethanolamine binding protein 4)	0.27	inactive
PIK3R3 (phosphoinositide-3-kinase regulatory subunit 3)	-1.58	active
PIK3R3 (phosphoinositide-3-kinase regulatory subunit 3)	-0.35	inactive
PIK3R3 (phosphoinositide-3-kinase regulatory subunit 3)	-1.26	inactive
PIK3R3 (phosphoinositide-3-kinase regulatory subunit 3)	-1.48	inactive
DLG5 (discs large MAGUK scaffold protein 5)	-0.37	inactive
DLG5 (discs large MAGUK scaffold protein 5)	0.72	inactive
DLG5 (discs large MAGUK scaffold protein 5)	0	inactive
DLG5 (discs large MAGUK scaffold protein 5)	0.14	inactive
VRK2 (VRK serine/threonine kinase 2)	2.06	inactive
VRK2 (VRK serine/threonine kinase 2)	0.61	inactive
VRK2 (VRK serine/threonine kinase 2)	2.86	active
VRK2 (VRK serine/threonine kinase 2)	4.05	active
TRIM74 (tripartite motif containing 74)	1.1	inactive
TRIM74 (tripartite motif containing 74)	0.48	inactive
TRIM74 (tripartite motif containing 74)	1.57	inactive
TRIM74 (tripartite motif containing 74)	-0.76	inactive
OR4K14 (olfactory receptor family 4 subfamily K member 14)	-0.74	inactive
OR4K14 (olfactory receptor family 4 subfamily K member 14)	0.36	inactive
OR4K14 (olfactory receptor family 4 subfamily K member 14)	0.45	inactive
OR4K14 (olfactory receptor family 4 subfamily K member 14)	1.16	inactive
SLC4A9	-0.17	inactive
SLC4A9	1.49	inactive
SLC4A9	-0.78	inactive
SLC4A9	-0.58	inactive
PIGX (phosphatidylinositol glycan anchor biosynthesis class X)	1.42	inactive
PIGX (phosphatidylinositol glycan anchor biosynthesis class X)	1.44	inactive
PIGX (phosphatidylinositol glycan anchor biosynthesis class X)	0.68	inactive
PIGX (phosphatidylinositol glycan anchor biosynthesis class X)	2.04	inactive
MARK3 (microtubule affinity regulating kinase 3)	-0.6	inactive
MARK3 (microtubule affinity regulating kinase 3)	0.93	inactive
MARK3 (microtubule affinity regulating kinase 3)	14.1	active
MARK3 (microtubule affinity regulating kinase 3)	2.55	inactive
GRIPAP1 (GRIP1 associated protein 1)	3.5	active
GRIPAP1 (GRIP1 associated protein 1)	4.96	active
GRIPAP1 (GRIP1 associated protein 1)	1.74	inactive
GRIPAP1 (GRIP1 associated protein 1)	1.44	inactive
FECH (ferrochelatase)	-1.81	active
FECH (ferrochelatase)	-1.21	inactive
FECH (ferrochelatase)	-2.01	active
FECH (ferrochelatase)	-0.86	inactive
MSH5 (mutS homolog 5)	0.74	inactive
MSH5 (mutS homolog 5)	0.16	inactive
MSH5 (mutS homolog 5)	0.49	inactive
MSH5 (mutS homolog 5)	1.09	inactive
